## Screening data, single-dose tests

By UniProt entry, the sequences of proteins in these tests, tags left out. Residues count along the entry.
UniProt P9WNZ1, whole entry: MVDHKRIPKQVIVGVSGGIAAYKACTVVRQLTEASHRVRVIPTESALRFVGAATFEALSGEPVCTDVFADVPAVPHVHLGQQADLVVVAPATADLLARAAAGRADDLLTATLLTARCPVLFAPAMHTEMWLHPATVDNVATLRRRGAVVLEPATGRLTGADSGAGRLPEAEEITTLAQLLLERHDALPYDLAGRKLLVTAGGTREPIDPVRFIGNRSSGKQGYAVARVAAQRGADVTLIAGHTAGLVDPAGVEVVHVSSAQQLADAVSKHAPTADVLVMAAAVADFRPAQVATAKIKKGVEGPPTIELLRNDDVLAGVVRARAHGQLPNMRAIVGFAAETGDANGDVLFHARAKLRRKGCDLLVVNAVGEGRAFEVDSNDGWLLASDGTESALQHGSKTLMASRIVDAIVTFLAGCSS
UniProt P9WFT3, whole entry: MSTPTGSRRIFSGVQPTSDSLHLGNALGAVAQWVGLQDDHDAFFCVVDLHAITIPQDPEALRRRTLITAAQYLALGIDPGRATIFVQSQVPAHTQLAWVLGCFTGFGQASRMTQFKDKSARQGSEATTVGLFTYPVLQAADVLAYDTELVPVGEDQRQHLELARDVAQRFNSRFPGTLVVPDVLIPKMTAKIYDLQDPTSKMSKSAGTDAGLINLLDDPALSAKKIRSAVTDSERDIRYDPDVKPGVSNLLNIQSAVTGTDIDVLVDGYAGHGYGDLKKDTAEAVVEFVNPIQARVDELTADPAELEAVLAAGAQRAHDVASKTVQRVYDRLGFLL
UniProt P9WPC5, whole entry: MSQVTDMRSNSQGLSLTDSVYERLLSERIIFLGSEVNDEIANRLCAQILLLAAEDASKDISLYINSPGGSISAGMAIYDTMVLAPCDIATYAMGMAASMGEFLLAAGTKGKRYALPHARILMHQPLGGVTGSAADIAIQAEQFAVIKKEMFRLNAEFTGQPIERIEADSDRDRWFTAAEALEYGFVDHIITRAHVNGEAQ
UniProt P9WPC3, whole entry partner: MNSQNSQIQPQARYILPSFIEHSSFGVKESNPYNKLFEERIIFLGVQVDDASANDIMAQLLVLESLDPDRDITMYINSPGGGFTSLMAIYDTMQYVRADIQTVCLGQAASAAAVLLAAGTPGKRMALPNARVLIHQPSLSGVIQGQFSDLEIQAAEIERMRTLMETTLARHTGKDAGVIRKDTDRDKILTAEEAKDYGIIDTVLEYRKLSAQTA
UniProt A4I591, 1-473: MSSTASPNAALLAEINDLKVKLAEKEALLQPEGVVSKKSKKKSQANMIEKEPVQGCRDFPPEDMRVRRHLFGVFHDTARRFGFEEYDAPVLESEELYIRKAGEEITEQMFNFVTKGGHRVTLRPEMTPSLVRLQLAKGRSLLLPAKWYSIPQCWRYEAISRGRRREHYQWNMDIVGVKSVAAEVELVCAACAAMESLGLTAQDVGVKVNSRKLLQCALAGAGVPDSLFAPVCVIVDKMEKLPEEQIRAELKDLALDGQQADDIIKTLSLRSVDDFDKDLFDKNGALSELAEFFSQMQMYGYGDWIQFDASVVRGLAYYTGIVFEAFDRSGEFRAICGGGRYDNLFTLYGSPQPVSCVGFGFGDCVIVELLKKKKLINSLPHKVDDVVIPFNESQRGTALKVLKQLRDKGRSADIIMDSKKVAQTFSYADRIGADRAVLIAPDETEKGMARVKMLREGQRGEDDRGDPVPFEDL
UniProt Q4DA54, 1-478: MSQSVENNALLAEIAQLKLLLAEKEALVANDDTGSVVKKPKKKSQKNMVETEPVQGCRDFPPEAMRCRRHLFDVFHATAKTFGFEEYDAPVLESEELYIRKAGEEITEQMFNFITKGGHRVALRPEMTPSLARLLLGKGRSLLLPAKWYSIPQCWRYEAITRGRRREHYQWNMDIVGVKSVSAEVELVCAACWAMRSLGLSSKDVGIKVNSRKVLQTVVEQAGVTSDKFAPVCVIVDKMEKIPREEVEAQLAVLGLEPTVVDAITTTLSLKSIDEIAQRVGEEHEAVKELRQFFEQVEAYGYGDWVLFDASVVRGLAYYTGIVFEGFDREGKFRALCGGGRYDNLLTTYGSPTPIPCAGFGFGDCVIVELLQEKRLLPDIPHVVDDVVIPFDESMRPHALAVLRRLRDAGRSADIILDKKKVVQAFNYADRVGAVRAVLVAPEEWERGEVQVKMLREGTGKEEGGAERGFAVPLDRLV

A: 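Coenzyme A biosynthesis protein CoaBC, Mycobacterium tuberculosis (UniProt P9WNZ1). Enzyme assay of CoaBC with a phosphate dye (Biomol Green) read at 650 nm. Concentration: 30 µM. Higher reads as stronger inhibition, judged from the few compounds that gave an IC50. Most strong results did not repeat in a second test. About 67,000 compounds were tested under these conditions; 0.06% (about 40) showed 50% or more at least once.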
B: 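Enzyme assay of tryptophanyl-tRNA synthetase; the read-out is not stated. Target: Tryptophan-tRNA ligase, Mycobacterium tuberculosis (UniProt P9WFT3). Concentration: 10 µM. Direction is not recorded; retested compounds ran higher, which suggests that high means inhibition. About 65,000 compounds were tested under these conditions; 0.098% (about 64) showed 50% or more at least once.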
C: 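Protease assay of ClpP1P2, read by the AMC dye that it sets free. Target: ClpP1P2, Mycobacterium tuberculosis (UniProt P9WPC5 and UniProt P9WPC3). Concentration: 50 µM. Direction is inferred from only a few compounds that gave an IC50; most scored high, so higher reads as stronger inhibition. Most other retested compounds had strongly negative values. About 69,000 compounds were tested under these conditions; 0.015% (about 10) showed 50% or more at least once.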
D: 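Histidine-tRNA ligase, Leishmania infantum (UniProt A4I591). Enzyme assay of histidyl-tRNA synthetase; the read-out is not stated. Concentration: 30 µM. The record gives no direction; compounds that gave an IC50 in retests scored well above the rest, so higher reads as stronger inhibition. The assay is labelled LdHisRS but filed under L. infantum. About 69,000 compounds were tested under these conditions; 0.6% (about 410) showed 50% or more at least once.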
E: 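Enzyme assay of histidyl-tRNA synthetase; the read-out is not stated. Target: Histidine-tRNA ligase, Trypanosoma cruzi CL Brener (UniProt Q4DA54). Compounds at 30 µM. The record gives no direction; compounds that gave an IC50 in retests scored well above the rest, so higher reads as stronger inhibition. Of about 69,000 compounds tested this way, about 31 (0.045%) reached 50% or more in at least one test.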

The filed quantity is “Percent Effect” (%).
The record does not define 0% and 100%; most values in the screen are far below 50% and negative numbers occur (in some assays of this library far below -100).
The compounds are a random part of those screened.

- Cc1cc(C(=O)N2CCCC(Cn3cc(C4CC4)nn3)C2)nc(C)n1 (configuration not stated) : A: 1.463%; B: 0.5093%; C: -2.297%; D: 6.667%; E: 2.597%
- CC(C)c1nn(C)cc1CNCc1ccnc(N(C)C)c1 : A: 2.42%; B: 1.943%; C: 3.083%; D: 6.218%; E: 11.6%
- COc1ccc(C(=O)N2CC(=O)N(Cc3cccs3)CC(O)C2)cc1 (configuration not stated) : A: 0.7264%; C: 8.173%; D: 8.163%; E: 7.865%
- CCC(O)CN1CCN(C(=O)c2cccn2Cc2ccccc2)CC1 (configuration not stated) : A: 4.113%; B: -0.07868%; C: -1.685%; D: -25.84%; E: 3.008%
- COc1cccc(C2CCCN2C(=O)CC2=CSC3=NCCCN23)c1 (configuration not stated) : A: 2.806%; B: 4.25%; C: 2.148%; D: 8.602%; E: -3.627%
- Fc1ccc(OCC2CCCO2)c(NCc2noc(C3CC3)n2)c1 (configuration not stated) : A: 2.885%; B: -1.146%; C: -15.34%; D: 9.589%; E: -0.9852%
- CCCc1nc2c(c(C)c(C)n2CCN(C)C)c(N)c1CC : A: 18.23%; B: 0.2427%; C: 7.14%; D: 14.61%; E: 4.663%
- COCc1ncc(CN(Cc2ccncc2)Cc2ccc(C)s2)cn1 : A: 2.213%; B: 0.09311%; C: -14.61%; D: 10.26%; E: 5.056%
- O=C(NCCc1cc(=O)[nH]cn1)c1[nH]nc2c1CCCC2 : A: 3.686%; B: 2.051%; C: -10.35%; D: 6.452%; E: 4.938%
- CCc1nc(C)c(CN2CCOC(CCCC(C)C)C2)[nH]1 (configuration not stated) : A: 5.037%; B: 6.65%; C: -6.752%; D: 10.85%; E: 7.143%
- CCS(=O)(=O)N1C[C@@H](c2cc(O)nc(C)n2)[C@H](c2ccccc2F)C1 : A: -0.2466%; B: 3.034%; C: -8.121%; D: 1.408%; E: 2.273%
- COCCNc1cc(-c2cccc(C(=O)O)c2C)c2cc[nH]c2n1 : A: 5.302%; B: -3.153%; C: -11.98%; D: 32.26%; E: 11.4%
- CC(NC(=O)CCOc1ccc(F)cc1)c1nnc2n1CCCCC2 (configuration not stated) : A: 2.212%; B: -3.814%; C: -20.88%; D: 0.8772%; E: 4.942%
- CCc1nnc(CN(C)CC2CCCCC2)o1 : A: -2.913%; B: -0.000006%; C: -7.39%; D: 11.9%; E: 1.98%
- Cc1nc(N2CCCC2)nc2c1CCN(C(=O)CC1CCCC1)CC2 : A: -0.2506%; B: 0.9682%; C: -1.679%; D: -7.692%; E: -3.659%
- CC(C)(CO)CCCNC(=O)NC1(c2cccc(F)c2)CC1 : A: 13.39%; B: -3.818%; C: -2.126%; D: 16.33%; E: 5%
- COCC1c2c(cnn2CC2CCOCC2)CCN1Cc1ccoc1 (configuration not stated) : A: 8.075%; B: -0.9381%; C: 9.235%; D: 17.31%; E: 0.5348%
- O=C(NCCc1ccccc1)N1C[C@H]2C[C@H](C(=O)N3CCCC3)[C@@H](C1)O2 : A: 3.055%; B: -1.443%; C: -1.666%; D: 15.79%; E: 5.747%
- COc1ccc(Cl)cc1NC(=O)N1CCc2nc(NC(C)=O)sc2C1 : A: -1.022%; B: -2.225%; C: -4.814%; D: 12.99%; E: 1.212%
- CCn1nc(C)c(S(=O)(=O)N(C)c2ccc(Cl)cn2)c1C : A: 1.167%; B: 2.469%; C: 17.08%; D: 4.505%; E: 3.333%
- CC[C@@H](c1ccccc1)n1c(CN)n[nH]c1=O : A: 1.687%; B: 1.748%; C: -2.428%; D: 16.48%; E: 5.941%
- Cc1cc2nc(CN(C)c3ccc(Cl)cc3)cc(=O)n2o1 : A: 9.989%; B: 6.165%; C: -8.54%; D: 12.39%; E: -2.632%
- Cc1ccc(CNCC2Cn3nnc(-c4cccc(F)c4)c3CO2)o1 (configuration not stated) : A: 8.469%; B: 4.557%; C: -1.608%; D: 34.29%; E: 4.902%
- Cc1ccc(CN2CCOC(C)(c3cnn(C)c3)C2)cc1 (configuration not stated) : A: 5.696%; B: -0.07788%; C: -19.08%; D: -3.896%; E: 5.419%

Once more, the final 2:

Compound,A,B,C,D,E
Cc1ccc(CNCC2Cn3nnc(-c4cccc(F)c4)c3CO2)o1 (configuration not stated),8.469%,4.557%,-1.608%,34.29%,4.902%
Cc1ccc(CN2CCOC(C)(c3cnn(C)c3)C2)cc1 (configuration not stated),5.696%,-0.07788%,-19.08%,-3.896%,5.419%

Source: ChEMBL document CHEMBL3988442, “University of Dundee, Small-Polar-MMV Screening Library” (2021).